PubChem BioAssay AID1259254 – NCATS | 2017
Shown is a random part of about 59,000 reagents tested. Over the whole deposit, about 1,550 (2.6%) were called active. 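G2 share is only a proxy for re-replication; each gene was hit by three separate siRNAs, and active genes were retested.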 Reagents against one gene are numbered here. Further read-outs or replicates are left out here. Not given: the amount of reagent.

- Test: 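Genome-wide screen for genes that prevent DNA re-replication in cancer cells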 (primary screen)
- Cells: human HCT116 colorectal cancer cells
- Reagents: single siRNA against human genes
- Duration: 3 days
- Measurement: 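Nuclei stained with Hoechst and imaged; cell-cycle phase assigned by DNA content; G2 share scaled per plate, non-targeting siRNA 0%, GMNN siRNA 100%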
- Direction: G2 robust z-score: higher = more G2 cells, more excess DNA replication
- Rule for the call: 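An siRNA counts as active if its G2 robust z-score lies at least 5 MADs above the screen median; here such calls match roughly 38% of GMNN control or more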

| gene knocked down | siRNA no. | G2 robust z-score | Outcome |
| --- | --- | --- | --- |
| HNF4A (hepatocyte nuclear factor 4 alpha) | 1 | -0.359 | inactive |
| HNF4A (hepatocyte nuclear factor 4 alpha) | 2 | 10.5 | active |
| HNF4A (hepatocyte nuclear factor 4 alpha) | 3 | -0.135 | inactive |
| KLF15 (KLF transcription factor 15) | 1 | -0.892 | inactive |
| KLF15 (KLF transcription factor 15) | 2 | 0.13 | inactive |
| KLF15 (KLF transcription factor 15) | 3 | -0.13 | inactive |
| ABCC1 | 1 | -0.17 | inactive |
| ABCC1 | 2 | -0.693 | inactive |
| ABCC1 | 3 | 0.58 | inactive |
| TFDP1 (transcription factor Dp-1) | 1 | 0.991 | inactive |
| TFDP1 (transcription factor Dp-1) | 2 | -1.07 | inactive |
| TFDP1 (transcription factor Dp-1) | 3 | -0.853 | inactive |
| DCLRE1A (DNA cross-link repair 1A) | 1 | -0.977 | inactive |
| DCLRE1A (DNA cross-link repair 1A) | 2 | -0.137 | inactive |
| DCLRE1A (DNA cross-link repair 1A) | 3 | 0.0992 | inactive |
| IFIT1 (interferon induced protein with tetratricopeptide repeats 1) | 1 | -0.917 | inactive |
| IFIT1 (interferon induced protein with tetratricopeptide repeats 1) | 2 | -0.362 | inactive |
| IFIT1 (interferon induced protein with tetratricopeptide repeats 1) | 3 | 1.27 | inactive |
| MAGT1 (magnesium transporter 1) | 1 | -0.517 | inactive |
| MAGT1 (magnesium transporter 1) | 2 | 0.762 | inactive |
| MAGT1 (magnesium transporter 1) | 3 | 0.858 | inactive |
| NAV1 (neuron navigator 1) | 1 | -0.494 | inactive |
| NAV1 (neuron navigator 1) | 2 | 0.68 | inactive |
| NAV1 (neuron navigator 1) | 3 | -0.262 | inactive |
| SPN (sialophorin) | 1 | 0.886 | inactive |
| SPN (sialophorin) | 2 | 2.76 | inactive |
| SPN (sialophorin) | 3 | 4.48 | inactive |
| PYGB (glycogen phosphorylase B) | 1 | 0.176 | inactive |
| PYGB (glycogen phosphorylase B) | 2 | -0.294 | inactive |
| PYGB (glycogen phosphorylase B) | 3 | 0.947 | inactive |
| EPB41L1 (erythrocyte membrane protein band 4.1 like 1) | 1 | -0.0905 | inactive |
| EPB41L1 (erythrocyte membrane protein band 4.1 like 1) | 2 | 0.726 | inactive |
| EPB41L1 (erythrocyte membrane protein band 4.1 like 1) | 3 | -0.57 | inactive |
| SRBD1 (S1 RNA binding domain 1) | 1 | 8.93 | active |
| SRBD1 (S1 RNA binding domain 1) | 2 | 4.08 | inactive |
| SRBD1 (S1 RNA binding domain 1) | 3 | 1.83 | inactive |
| CT45A5 (cancer/testis antigen family 45 member A5) | 1 | -0.297 | inactive |
| CT45A5 (cancer/testis antigen family 45 member A5) | 2 | 1.36 | inactive |
| CT45A5 (cancer/testis antigen family 45 member A5) | 3 | 0.0417 | inactive |
| TESC (tescalcin) | 1 | 2.18 | inactive |
| TESC (tescalcin) | 2 | 2.72 | inactive |
| TESC (tescalcin) | 3 | -0.107 | inactive |
| DTNB (dystrobrevin beta) | 1 | -0.878 | inactive |
| DTNB (dystrobrevin beta) | 2 | -0.116 | inactive |
| DTNB (dystrobrevin beta) | 3 | -0.809 | inactive |
| NT5C (5', 3'-nucleotidase, cytosolic) | 1 | -1.46 | inactive |
| NT5C (5', 3'-nucleotidase, cytosolic) | 2 | 2.26 | inactive |
| NT5C (5', 3'-nucleotidase, cytosolic) | 3 | 0.456 | inactive |
| VAV1 (vav guanine nucleotide exchange factor 1) | 1 | 2.08 | inactive |
| VAV1 (vav guanine nucleotide exchange factor 1) | 2 | -0.847 | inactive |
| VAV1 (vav guanine nucleotide exchange factor 1) | 3 | -0.109 | inactive |
| UBXN2B (UBX domain protein 2B) | 1 | -0.605 | inactive |
| UBXN2B (UBX domain protein 2B) | 2 | -1.07 | inactive |
| UBXN2B (UBX domain protein 2B) | 3 | -0.478 | inactive |
| RAD17 (RAD17 checkpoint clamp loader component) | 1 | 1.45 | inactive |
| RAD17 (RAD17 checkpoint clamp loader component) | 2 | -1.13 | inactive |
| RAD17 (RAD17 checkpoint clamp loader component) | 3 | -0.0412 | inactive |
| ENTPD4 (ectonucleoside triphosphate diphosphohydrolase 4) | 1 | 0.384 | inactive |
| ENTPD4 (ectonucleoside triphosphate diphosphohydrolase 4) | 2 | -0.53 | inactive |
| ENTPD4 (ectonucleoside triphosphate diphosphohydrolase 4) | 3 | 0.301 | inactive |
| DUSP2 (dual specificity phosphatase 2) | 1 | -1.31 | inactive |
| DUSP2 (dual specificity phosphatase 2) | 2 | 0.395 | inactive |
| DUSP2 (dual specificity phosphatase 2) | 3 | -0.636 | inactive |
| PSEN1 (presenilin 1) | 1 | 0.681 | inactive |
| PSEN1 (presenilin 1) | 2 | 0.719 | inactive |
| PSEN1 (presenilin 1) | 3 | -0.75 | inactive |
| TRIM64C (tripartite motif containing 64C) | 1 | -0.297 | inactive |
| TRIM64C (tripartite motif containing 64C) | 2 | -0.993 | inactive |
| TRIM64C (tripartite motif containing 64C) | 3 | 2.97 | inactive |
